In the test the target is GFP–RCC2 (UniProt Q9P258). Description: affinity purification with mass spectrometry; SILAC: HEK-293T cells in R0K0 (GFP) or R6K4 (GFP–RCC2) media, GFP-Trap, LTQ-Orbitrap Velos.

These are yes or no findings as the source states them, for the method shown. In cells and extracts the contact can be indirect. Here binding means that the protein was enriched with, or labelled near, the bait; the list need not be complete.

On to “endogenous Coro1C (293T) (from UniProt Q9ULV4 1-474)”, for which the binding result is listed as “binds”.

The values are drawn from publication PMC4179493.
